Assay results as given in publication PMC6035793.
Results are given in words; binding and its absence hold for the method and conditions named. In cells and extracts the contact can be indirect. For some of these results: Binding calls can cover weak binding; strength is not graded here.

Amino acid sequences for entries named in this document (tags omitted). A change or cut given only in a name is not applied to a line headed by its entry.
UniProt Q9SSX0: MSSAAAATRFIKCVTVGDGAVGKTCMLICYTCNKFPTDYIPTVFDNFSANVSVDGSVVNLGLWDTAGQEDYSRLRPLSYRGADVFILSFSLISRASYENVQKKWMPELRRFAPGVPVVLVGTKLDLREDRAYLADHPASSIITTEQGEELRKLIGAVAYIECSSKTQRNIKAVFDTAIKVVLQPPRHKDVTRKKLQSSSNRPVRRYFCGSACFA
UniProt Q13153: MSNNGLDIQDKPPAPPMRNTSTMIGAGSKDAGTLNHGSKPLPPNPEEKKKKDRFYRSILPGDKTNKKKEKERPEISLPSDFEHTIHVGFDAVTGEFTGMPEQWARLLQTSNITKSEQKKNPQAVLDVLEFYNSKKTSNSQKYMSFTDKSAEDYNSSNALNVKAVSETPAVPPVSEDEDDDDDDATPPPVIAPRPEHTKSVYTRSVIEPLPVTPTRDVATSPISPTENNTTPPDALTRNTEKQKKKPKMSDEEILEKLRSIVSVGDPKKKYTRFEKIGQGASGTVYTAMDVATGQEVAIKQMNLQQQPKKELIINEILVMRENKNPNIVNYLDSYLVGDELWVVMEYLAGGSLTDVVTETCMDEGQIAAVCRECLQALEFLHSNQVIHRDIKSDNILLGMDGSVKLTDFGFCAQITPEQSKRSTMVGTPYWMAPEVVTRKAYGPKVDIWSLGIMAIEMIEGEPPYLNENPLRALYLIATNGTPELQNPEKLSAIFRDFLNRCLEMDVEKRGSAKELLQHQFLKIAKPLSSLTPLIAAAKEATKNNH

Tests used:
[1] = biological target: constitutively active (G19V) form of OsRac1 (rice) (UniProt Q9SSX0); test: pull-down; pull-down of PAK CRIB with OsRac1 CA and DN; no details told here (ref. 13)
[2] = biological target: dominant negative (T24N) form of OsRac1 (rice) (UniProt Q9SSX0); test: as above
[3] = biological target: OsRac1 dominant negative (T24N) as it stands in Raichu-DN-OsRac1 (rice) (UniProt Q9SSX0); test: FRET or BRET; intramolecular FRET sensor Raichu-OsRac1 (Venus, PAK CRIB, OsRac1, CFP on one chain) in living rice protoplasts, 10-16 h after transfection; CFP excited at 440 nm, Venus/CFP emission ratio
[4] = biological target: OsRac1 constitutively active (G19V) as it stands in Raichu-CA-OsRac1 (rice) (UniProt Q9SSX0); test: as above

Row | Substance | binding [1] | binding [2] | binding [3] | binding [4]
1 | CRIB domain of PAK (Cdc42/Rac interactive binding domain of the Rac-effector PAK1) (from UniProt Q13153) (domain or fragment) | binds | no binding |  | 
2 | CRIB domain of PAK as it stands in the Raichu-OsRac1 FRET sensor (from UniProt Q13153) (domain or fragment) |  |  | no binding | binds
